From the supplement of paper PMC3334620 come the findings set out here.

Whole data set: some 33,000 sequences, median “E-score (-0.5 to 0.5)” near -8e-05, cut for the highest 2% near 0.23. Some of the results follow.

This assay deals with T1, Nrg2 (UniProt P38082).
T1 sequence: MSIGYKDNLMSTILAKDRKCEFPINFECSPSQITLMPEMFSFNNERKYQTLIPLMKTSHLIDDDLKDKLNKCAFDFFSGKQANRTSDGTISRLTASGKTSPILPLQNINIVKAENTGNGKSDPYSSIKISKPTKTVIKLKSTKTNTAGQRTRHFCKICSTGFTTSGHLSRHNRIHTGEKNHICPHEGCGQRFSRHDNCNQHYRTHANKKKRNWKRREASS
The assay is described as follows: PBM E-score (8-mer binding enrichment) (E-score (-0.5 to 0.5)); higher = stronger / more preferred TF binding. The conditions noted are these: protein concentration: 100 nM; construct: GST-full length. As for the experimental part:
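Universal 'all 10-mer' protein binding microarrays (Agilent AMADID 015681) probed with GST-tagged S. cerevisiae TFs (full-length or DBD) made by in vitro transcription/translation (PURExpress), about 100-200 nM. Bound TF was detected with fluorescent anti-GST. Each ungapped 8-mer (which stands for itself and its reverse complement) is scored by the PBM enrichment score (E-score), a modified Wilcoxon-Mann-Whitney statistic from -0.5 to +0.5, computed with the Universal PBM Analysis Suite. Scale: above 0.35 generally sequence-specific binding.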
For the sequence AGTGATAC, the “PBM E-score” value is -0.0019.
Take ATGTCTAA: the “PBM E-score” value is 0.0784.
The value for GAACAGGA was -0.0211; that for CAAGTTGC was 0.0505; that for CCTCCACA was -0.0559.
On to GTGCCTTA, for which the “PBM E-score” value is -0.0409.
For GTTTAACA the value was -0.0627; for AGTACCTC, -0.077.
The value for GGCTTCCC was -0.194; that for AGGTCGAT was 0.105.
For GATACGAC the value was 0.0685; for GATCTCCA, 0.0533; for ACTCTTAG, -0.0539.
For GAACCAAC, the “PBM E-score” value came out at 0.103.
The value for GATATCGA was 0.0243; that for ATCCGCCA was -0.087.
On to ACGTTCAT, for which the “PBM E-score” value is -0.178.
The value for GGGCCAGA was -0.194; that for GACACCCA was -0.0539.
For AAGAATCT the value was -0.145; for TACTTCGA, 0.23; for ACGTAAAC, -0.121.
The value for AAACCGTC was -0.148.
In the case of AATGCTAT, the “PBM E-score” value was determined as 0.00339.
For GGGCTAGA the value was -0.0953.
The value for ACTCCTCC was -0.218; that for AGGCATGA was -0.13; that for TCGAAAAA was 0.166.
The value for AAGCCTCA was -0.176; that for TCTCCTAA was -0.0733; that for AACAGCGC was -0.00535.
On to ACAACTAG, for which the “PBM E-score” value is -0.055.
The value for GGTTCCAA was 0.147; that for CCGAGCGA was 0.0987; that for CAAATGCC was -0.0811.
The value for AAGACCCG was 0.0509; that for AATAGGCT was -0.00861.
The value for GGGATAAC was -0.0795; that for CTAATTGC was 0.0943.
In the case of CAGCGCCC, the “PBM E-score” value is -0.0558.
For GGGTCTCA the value was 0.0513; for GTCGGCAA, -0.0874; for CCTGTTGC, 0.142.
The value for ACCGACTA was -0.367; that for AGCTGCAA was -0.0919; that for GGGTGGAC was -0.09.
GACCCCGA: the “PBM E-score” value turned out to be 0.0746.
CGATTTGA: the “PBM E-score” value came out at 0.0683.
For GAACTCCC the value was -0.0215; for ACTTTATC, 0.0288; for GGAGCTTA, -0.191.
The value for GGGCCTCA was 0.0757.
Consider AACGGTGG, for which the “PBM E-score” value is -0.171.
The value for CATAAGAG was -0.0444; that for AGAAGCTC was 0.0172.
The value for GGAGTGCC was 0.0483; that for CATGCAGC was -0.0372.
For AGAGAGGG the value was -0.151; for AAAGCTGC, 0.0809.
On to ATGCCTCG, for which the “PBM E-score” value amounted to 0.0817.
For ACCGGGCA the value was -0.19.
On to AATGAGCC, for which the “PBM E-score” value was -0.164.
For the sequence AAATGTCT, the “PBM E-score” value is -0.0438.
The value for GTCAATCA was -0.0641.
On to CCAAGATC, for which the “PBM E-score” value worked out at 0.0488.
For the sequence ATCTTCCC, the “PBM E-score” value was -0.0523.
The value for AACCGATG was 0.0555; that for CGCGTCCG was 0.0579; that for ACGATGAC was -0.233.
For GCCCGACA the value was 0.101; for ACTGCACG, -0.0983.
As to CGCTCGTC, the “PBM E-score” value was -0.167.
For GATGATTA the value was 0.0695.
Consider CGTCCGCA, for which the “PBM E-score” value was -0.187.
With ACGTTTCC, the “PBM E-score” value was -0.16.
For CGCTCCAA the value was -0.141; for CGGAGTTA, -0.0895; for GTTCTAAA, -0.0825.
With AACACTTG, the “PBM E-score” value worked out at 0.0302.
For GCCTACAA the value was 0.0441; for CCCCGAGA, -0.0523; for TCGAGGAA, -0.0948.
GAGGAGTA: the “PBM E-score” value was -0.0769.
For GCAACGTA the value was -0.00927; for CACACTTA, -0.0163.
For AGGCCTGA the value was -0.118; for AGTGGCTG, 0.126; for CGATCCAA, -0.033.
The value for CTATGTAA was -0.0136; that for ATCGAATG was 0.06; that for AGCACTAT was -0.0184.
On to CTAAAAGA, for which the “PBM E-score” value was -0.198.
The value for GCTTATCA was -0.0144.
Consider ATCCGATC, for which the “PBM E-score” value was determined as 0.0278.
